Reference: PubChem BioAssay AID2685 (National Center for Advancing Translational Sciences (NCATS), 2010)
Where “and” joins values, the source holds several entries; their conditions need not be identical. Equal entries are not always repeated. The list shows a part of the results. Further columns of the screen follow, without active or inactive calls. Most of these compounds were active or inconclusive in the main read-out, so they are no random draw. Potencies come from curve fits of mixed quality, noted in brackets.

Assay: qHTS Assay for Lipid Storage Modulators in Drosophila S3 Cells;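 for cell number change: cells counted by Cell Tracker Red CMTPX staining in the red channel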
Settings: BODIPY lipid droplet fluorescence, 18-24 h; for cell number change: measured here: cell count max response, cells fed with added oleic acid
Outline: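 Drosophila S3 cells got compounds at several concentrations plus oleic acid (400 uM solution). Laser-scanning cytometry with 488 nm excitation read lipid droplets at 500-530 nm and cells at 575-640 nm. Percent activity was relative to 20 uM Triacsin C.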

[1] = measured here: lipid fluorescence (Fed channel) AC50, cells fed with added oleic acid
[2] = measured here: cell number channel AC50, cells fed with added oleic acid

SMILES | cell number change | AC50 [1] | AC50 [2]
CCCCC(=O)Nc1ccc(C(=O)Nc2ccc(OC)cc2[N+](=O)[O-])cc1 | 0.825% | 16.4 µM [falling, partial curve] | –
CCOc1ccc(C(C)=O)cc1CC(C(N)=O)C(N)=O | -65.5% | 18.4 µM [falling, single point] | 23.1 µM [falling, single point]
O=C(Nc1cccc(Cl)c1)c1ccc(-n2cncn2)c([N+](=O)[O-])c1 | – | 0.731 µM [rising, full curve] | 0.411 µM [rising, full curve, poor fit]
O=c1c2cccc3c(N4CCOCC4)ccc(c32)c2nc3ccccc3n12 | -13.4% | 29.1 µM [falling, single point] | –
O=C(O)c1ccccc1C(=O)NNC(=O)C(c1ccccc1)c1ccccc1 | 17.6% | 14.6 µM [rising, partial curve] | –
CCn1cc(C(=O)NCCc2ccc(OC)cc2)c(=O)c2ccc(C)nc21 | 11.3% | 13 µM [rising, partial curve] | –
Cn1c(=O)c2c(nc(SCC(=O)NCc3ccc4c(c3)OCO4)n2Cc2ccccc2)n(C)c1=O | – | 0.731 µM [rising, single point] | –
COc1ccc(OC)c(C2=NOC(C(=O)Nc3ccc4c(c3)OCCO4)C2)c1 (stereo not drawn) | 7.56% | – | –
O=C1CC(c2ccccc2)c2cccc(F)c21 (stereo not drawn) | 46.8% | 6.51 µM [rising, full curve, poor fit] | 8.2 µM [rising, partial curve, poor fit]
CC1CCN(CCNC(=O)c2ccc3c(=O)n(Cc4ccc(Cl)cc4)c(=S)[nH]c3c2)CC1 | -2.59% | 6.51 µM [rising, single point] | –
O=C(Nc1ccccc1C(=O)NCC1CCCO1)c1ccc(Cl)cc1Cl (stereo not drawn) | -31.4% | 29.1 µM [falling, single point] | 16.4 µM [falling, partial curve, poor fit]
CCOc1ccc(C(=O)Nc2ccc(S(=O)(=O)NCC3CCCO3)cc2)cc1OCC (stereo not drawn) | 1.74% | 18.4 µM [falling, single point] | –
Cc1ccccc1N1CCN(C2CCCN(C(=O)CCn3cnnn3)C2)CC1 (stereo not drawn) | 32.4% | – | 0.0291 µM [rising, full curve, poor fit]
CN(C)/C=N/c1nc2nccc(-c3cccs3)n2n1 | -23.7% | – | –
Cc1cccc(NC(=O)/C(C#N)=C/c2ccc(F)cc2)n1 | -14.9% | 29.1 µM [falling, single point] | –
NNC(=O)Cn1cnc2ccccc21 | 1.23% | – | 0.517 µM [falling, single point]
COc1ccc(S(=O)(=O)N2CCC(C(=O)N[C@@H](C)C(=O)N3CCCCCC3)CC2)cc1 | 20.3% | 29.1 µM [rising, single point] | –
CCCCNC(=O)C(CC)Sc1nc2sc(C(=O)OC)c(C)c2c(=O)n1N (stereo not drawn) | -4.6% | 32.6 µM [rising, single point] | –
COC(=O)c1ccc(/C=C2/SC(=S)N(CCC(=O)N3CCOCC3)C2=O)cc1 | 15.4% | – | –

SMILES | cell number change | AC50 [1] | AC50 [2]
COc1ccccc1NC(=O)/C=C/C(N)=O | -90% | 16.4 µM [falling, partial curve] | 18.4 µM [falling, single point]
CCOC(=O)/C=c1\s/c(=C\c2ccc(C)cc2)c(=O)n1CC(=O)NCc1ccco1 | – | 23.1 µM [falling, single point] | –
CCOc1ccc(NS(=O)(=O)c2ccc(OCC(=O)NCCCOC)cc2)cc1 | – | – | 2.59 µM [rising, single point]
COc1ccc(C2CC(c3ccccc3)Nc3nc(N)nn32)cc1 (stereo not drawn) | -12.5% | – | –
Cc1ccc2[nH]c3c(=O)n(Cc4ccco4)cnc3c2c1 | 23.9% | 29.1 µM [rising, single point] | –
Cc1ccc2nc(Nc3nc(-c4ccccc4)cc(=O)[nH]3)nc(C)c2c1 | -30.2% | 3.66 µM [falling, full curve, poor fit] | 2.31 µM [falling, full curve, poor fit]
CC(OC(=O)CC1CC2CCC1C2)C(=O)Nc1ccc(N2CCOCC2)cc1 (stereo not drawn) | -15.9% | 0.00651 µM [falling, full curve, poor fit] | –
COc1ccc(C(=O)N(C)Cc2cnn(Cc3ccccc3)c2)cc1S(=O)(=O)N1CCOCC1 | 32.7% | 25.9 µM [rising, partial curve, poor fit] | 23.1 µM [rising, single point]
COc1cccc(CNC(=O)C(c2ccc(Cl)cc2)C(C)C)c1 (stereo not drawn) | -6.11% | 4.11 µM [falling, full curve, poor fit] | –
CC1CCCC(NC(=O)CN2CCN(Cc3ccc(Cl)cc3)C2=O)C1C (stereo not drawn) | -17.9% | 0.00461 µM [falling, full curve, poor fit] | –
O=C(Nc1ccc(OC(F)F)c(Cl)c1)c1ccccn1 | 78.2% | 23.1 µM [rising, single point] | 16.4 µM [rising, single point]
COc1ccccc1NS(=O)(=O)c1cccc(C(=O)NNC(=O)c2ccc(O)c(Cl)c2)c1 | 8.04% | 0.0058 µM [rising, full curve, poor fit] | –
Nc1c(Cl)ncnc1N/N=C/c1ccccn1 | 48.1% | 23.1 µM [falling, partial curve] | 0.82 µM [rising, full curve, poor fit]
Cc1cc(NC(=O)COC(=O)c2nccnc2N)n(-c2ccccc2)n1 | 33.4% | 14.6 µM [rising, partial curve] | 14.6 µM [rising, single point]
O=C1N/C(=N/N=C/c2ccccc2)SC1(c1ccccc1)c1ccccc1 | -23% | 11.6 µM [falling, partial curve] | –
CN(C)S(=O)(=O)c1cccc(NC(=O)c2ccc(COc3ccccc3)cc2)c1 | -42.6% | 13 µM [falling, partial curve] | 14.6 µM [falling, partial curve]
O=[N+]([O-])c1cc(/C=N/Nc2nc3ccccc3[nH]2)c(O)cc1O | -15.8% | 29.1 µM [falling, single point] | –
COc1ccccc1NS(=O)(=O)N(C)C | -72.1% | – | 23.1 µM [falling, partial curve]
CC(C)CCNC(=O)C(c1ccc(O)cc1)N(C(=O)C1COc2ccccc2O1)c1cccc(O)c1 (stereo not drawn) | -30% | 10.3 µM [falling, partial curve, poor fit] | –

SMILES | cell number change | AC50 [1] | AC50 [2]
COc1ccc(N2CCN(C(=O)c3cccc(Br)c3)CC2)c([N+](=O)[O-])c1 | -10.5% | 0.517 µM [falling, full curve] | 0.731 µM [falling, single point]
CC(=O)Nc1ccc(C(=O)CSc2nnnn2C2CCCC2)cc1 | 29% | 14.6 µM [rising, single point] | –
O=[N+]([O-])c1ccc(Nc2nc(Cl)nc(NCCO)n2)cc1 | -47.3% | – | 29.1 µM [falling, partial curve, poor fit]
CCCCn1c(N)c(N(CC)C(=O)/C=C/c2ccco2)c(=O)[nH]c1=O | -4.31% | – | –
COc1ccc2cc(-c3ccccc3)c(=O)oc2c1 | 20.9% | – | –
Cc1ccccc1CN1C(=O)c2ccccc2S(=O)c2ccc(C(=O)NCCCN3CCOCC3)cc21 (stereo not drawn) | 10.4% | 29.1 µM [falling, single point] | 0.058 µM [rising, full curve, poor fit]
COc1cccc(OCC(=O)N2CCC3(CC2)CC(=O)c2ccccc2O3)c1 | -7.87% | 9.2 µM [falling, partial curve] | –
COc1ccc(CN(CC(=O)NC2CCCC2)C(=O)CCC(=O)Nc2nc(C)cs2)cc1 | – | 0.259 µM [falling, partial curve, poor fit] | –
CCOC(=O)C1C(=O)Nc2nc3ccccc3n2C1C(C)C (stereo not drawn) | -4.13% | 4.61 µM [falling, full curve, poor fit] | –
O=C(CN(C(=O)CNC(=O)c1cccs1)c1cccc(F)c1)NC1CCCCC1 | – | 6.51 µM [rising, partial curve] | –
CCN(CC)CCNC(=O)c1ccc(NC(=O)c2cc(-c3ccco3)nc3ccccc23)cc1 | 14.1% | 2.31 µM [rising, single point] | –
CC(=O)Nc1cccc(NC(=O)CS(=O)(=O)c2cn(CC(=O)N(C(C)C)C(C)C)c3ccccc23)c1 | 5.2% | – | –
C[C@@H](C(=O)NCCc1ccc(F)cc1)N1C(=O)N2CCc3c([nH]c4ccccc34)[C@@]2(C)C1=O | -24.9% | 0.291 µM [falling, full curve] | 3.66 µM [falling, full curve, poor fit]
Cn1cccc1-c1cc(C(=O)N/N=C/c2ccccc2Cl)[nH]n1 | 0.612% | 1.03 µM [rising, single point] | –
CCOC(=O)N1CCC(NCCNC(=O)c2ccccc2)CC1 | -5.2% and 5.55% | 7.31 µM [falling, full curve] | –
Cc1ccc(NC(=S)c2ccc3ccccc3n2)c(C)c1 | 21.7% | 5.17 µM [falling, full curve] | –
O=C(NNc1ncccc1-n1cccc1)c1ccc(Cl)cc1 | -1.32% | – | 0.13 µM [falling, full curve, poor fit]
Cc1ccc(NC(=O)/C(C#N)=C/c2ccccc2C(F)(F)F)cc1 | -2.73% | 0.82 µM [falling, partial curve, poor fit] | –

Reformatted as comma-separated lines: two of the compounds above.
SMILES,cell number change,AC50 [1],AC50 [2]
C[C@@H](C(=O)NCCc1ccc(F)cc1)N1C(=O)N2CCc3c([nH]c4ccccc34)[C@@]2(C)C1=O,-24.9%,"0.291 µM [falling, full curve]","3.66 µM [falling, full curve, poor fit]"
Cn1cccc1-c1cc(C(=O)N/N=C/c2ccccc2Cl)[nH]n1,0.612%,"1.03 µM [rising, single point]",–
